B1: anti-EPOR antibody clonotype519 (antibody, V domains shown)
VH: QVQLQESGPGLVKPSGTLSLTCAVSGGSIISSNWWSWVRQSPGKGLGWIGEIYHSGSTTYNPSLKSRVTISVDKSKNQFSLKLSSVTAADTALYYCARSHIVGVNGGFDYWGQGTLVTVSS
VL: SSELTQDPAVSVALGQTVRITCQGDSLRSYYASWYQQKPGQAPVLLIYGKNNRPSGIPDRFSGSSSGNTASLTITGAQAEDEADYYCNSRDSSGNHWVFGGGTKLTVL
B2: anti-EPOR antibody clonotype520 (antibody, V domains shown)
VH: EVQLVESGGGLVKPGGSLRLSCAASGFTFSSYSMNWVRQAPGKGLEWVSSISSSSSYIYYADSVKGRFTISRDNAKNSLYLQMNSLRAEDTAVYYCARDRYNWNYRAFDIWGQGTMVTVSS
VL: SSELTQDPAVSVALGQTVRITCQGDSLRSYYASWYQQKPGQAPVLVIYGKNNRPSGIPDRFSGSSSGNTASLTITGAQAEDEADYYCNSRDSSGNHLVFGTGTKVTVL
B3: anti-EPOR antibody clonotype44 (antibody, V domains shown)
VH: QVQLVQSGAEVKKPGASVKVSCKASGYTFTSYGISWVRQAPGQGLEWMGWISPYNGNTNYAQNLQDRVTMITDTSTTTAYMELRSLRSDDTAVYYCARNHYYYMDVWGKGTTVTVSS
VL: QSALTQPASVSGSPGQSITISCTGTSSDVGGYNYVSWYQQHPGKAPKLMIYDVSKRPSGVSNRFSGSKSGNTASLTISGLQAEDEADYYCCSYAGSSTYVVFGGGTKLTVL
B4: anti-EPOR antibody clonotype103 (antibody, V domains shown)
VH: QVQLVQSGAEVKKPGASVKVSCKASGYTFTSYGISWVRQAPGQGLEWMGWISVYNGNTNYAQKLQGRVTMTTDTSTSTAYMELRSLRSDDTAVYYCARQITATRGFDYWGQGTLVTVSS
VL: QSALTQPASVSGSPGQSITISCTGTSSDVGGYNYVSWYQQHPGKAPKLMIYDVSKRPSGVSNRFSGSKSGNTASLTISGLQAEDEADYYCCSYAGSSTFVVFGGGTKLTVL
B5: anti-EPOR antibody clonotype102 (antibody, V domains shown)
VH: EVQLVQSGAEVKKPGESLKISCKGSGYSFTSYWIGWVRQMSGKGLEWMGIIYPSDSDTRYSPSFQGQVTISADKSISTAYLQWSSLKASDTAMYYCARQINWGAIDYWGQGTLVTVSS
VL: QSALTQPASVSGSPGQSITISCTGTSSDVGGYNYVSWYQQHPGKAPKLMIYDVSKRPSGVSNRFSGSKSGNTASLTISGLQAEDEADYYCCSYAGSSTFVVFGGGTKLTVL
B6: anti-EPOR antibody clonotype69 (antibody, V domains shown)
VH: QVQLQESGPGLVKPSGTLSLTCAVSGGSISSSNWWSWVRQPPGKGLEWIGEIYHSGSTNYNPSLKSRVTISVDKSKNQFSLKLSSVTAADTAVYYCARRGAARPFDYWGQGTLVTVSS
VL: QAVLTQPASLSASPGASASLTCTLRSGINVGTYRIYWYQQKPGSPPQYLLRYKSDSDKQQGSGVPSRFSGSKDASANAGILLISGLQSEDEADYYCMIWHSSAYVVFGGGTKLTVL
B7: anti-EPOR antibody clonotype10 (antibody, V domains shown)
VH: QVQLQQSGPGLVKPSQTLSLTCAISGDSVSSNSAAWNWIRQSPSRGLEWLGRTYYRSKWYNDYAVSVKSRITINPDTSKNQFSLQLNSVTPEDTAVYYCARKGELLGAFDIWGQGTMVTVSS
VL: QSALTQPASVSGSPGQSITISCTGTSSDVGGYNYVSWYQQHPGKAPKLMIYEVSNRPSGVSNRFSGSKSGNTASLTISGLQAEDEADYYCSSYTSSSTWVFGGGTKLTVL
B8: anti-EPOR antibody clonotype109 (antibody, V domains shown)
VH: QVQLQQSGPGLVKPSQTLSLTCAISGDSVSSNSAAWSWIRQSPSRGLEWLGRTYYRSKWYNDYAVSVKSRITINPDTSKNQFSLQLNSVTPEDTAVYYCARKWELRDTFDIWGQGTMVTVSS
VL: QSALTQPASVSGSPGQSITISCTGTSSDVGGYNYVSWYQQHPGKAPKLMIYDVSKRPSGVSNRFSGSKSGNTASLTISGLQAEDEADYYCCSYAGSSTLGIDWVFGGGTKLTVL
B9: anti-EPOR antibody clonotype36 (antibody, V domains shown)
VH: EVQLVESGGGLVTPGGSLRLSCAASGFTFNNYSMNWVRQAPGKGLEWVSSISSSSSYIYYADSVKGRFTISRDNAKNSLYLPMISLRAEDTAVYYCARDGITGTTFYFDYWGQGTLVTVSS
VL: QSALTQPRSVSGSPGQSVTISCTGTSSDVGGYNYVSWYQQHPGKAPKLMIYDVSKRPSGVPDRFSGSKSGNTASLTISGLQAEDEADYYCCSYAGSYTWVFGGGTKLTVL
B10: anti-EPOR antibody clonotype424 (antibody, V domains shown)
VH: QVQLVESGGGLVKPGGSLRLSCAASGFTFSDYYMSWIRQAPGKGLEWVSYISSSGSTIYYPDSVKGRFTISRDNAKNSLYLQMNSLRAEDTAVYYCARDGAAFDIWGQGTMVTVSS
VL: QSALTQPASVSGSPGQSITISCTGTSSDVGGYNYVSWYQQHPGKAPKLMIYDVSKRPSGVSNRFSGSKSGNTASLTISGLQAEDETDYYCCSYAGSSTLVFGGGTKLTVL
B11: anti-EPOR antibody clonotype13 (antibody, V domains shown)
VH: QVQLQQSGPGLVKPSQTLSLTCAISGDSVSSNSAAWNWIRQSPSRGLEWLGRTYYRSKWYNDYAGSVKSRIIIIPDTSKNQLSLQLKSVTPEDTAVYYCARKWELRDAFDIWGQGTMVTVSS
VL: QSALTQPASVSGSPGQSITISCTGTSSDVGGYNYVSWYQQHPGKAPKLMIYDVSKRPSGVSNRFSGSKSGNTASLTISGLQAEDEADYYCCSYAGRSTLGIDWVFGGGTKVTVL
B12: anti-EPOR antibody clonotype426 (antibody, V domains shown)
VH: QIQLVQSGAEMKKPGASVKVSCKASGYTFTNYGISWVRQAPGQGLEWMGWINTYNDKTNFALKVQGRVTMTTDTSTSTAYMELRSLRSDDTAVYYCARDRGYSFDYWGQGTLVTVSS
VL: SYELTQPPSVSVSPGQTASITCSGDKLGDKHACWYQQKPGQSPMLVIYQDSKRPSGIPERFSGSNSGNTATLTISGTQPMDEADYYCQAWDSSTFGGGTKLTVL
B13: anti-EPOR antibody clonotype518 (antibody, V domains shown)
VH: QVQLQESGPGLVKPSGTLSLTCAVSGGSISSSNWWSWVRQPPGKGLEWIGEIYHSGSTNYNPSLKSRVTISVDKSKNQFSLKLSSVTAADTAVYYCARDPSIVGATAFDIWGQGTMVTVSS
VL: QSALTQPRSVSGSPGQSVTISCTGTSSDVGGYNYVSWYQQHPGKAPKLMIYDVSKRPSGVPDRFSGSKSGNTASLTISGLQAEDEADYYCCSYAQGVVFGGGTKLTVL
B14: anti-EPOR antibody clonotype56 (antibody, V domains shown)
VH: EVQLVESGGDLVQPGGSLKLSCAASGFSFSGSTLHWVRQASGKGLEWIGHIRSKPNNYATLYGASVKGRFTISRDDSKNTAYLQMNSLKIEDTAVYYCNGVYGGSSYFFDYWGQGTLVTVSS
VL: QAVLTQPASLSASPGASASLTCTLRSGINVGTYRIYWYQQKPGSPPQYLLRYKSDSDKQQGSGVPSRFSGSKDASANAGILLISGLQSEDEADYYCMIWHSSAVVFGGGTKLTVL
B15: anti-EPOR antibody clonotype407 (antibody, V domains shown)
VH: EVQLVESGGGLVKPGGSLRLSCAASGFTFSNAWMSWVRQAPGKGLEWVGRIKSKSDGGTRDYAAPVKGRFTISRDDSKNTLYLQMNSLKTEDTAMFYCTTGGTHWGQGTLVTVSS
VL: SYELTQPPSVSVSPGQTARITCSADALPKQYAYWYQQKPGQAPVLVIYKDSERPSGIPERFSGSSSGTTVTLTISGVQAEDEADYYCQSADSSATWVFGGGTKLTVL
B16: anti-EPOR antibody clonotype409 (antibody, V domains shown)
VH: EVQLVESGGGLVKPGGSLRLSCAASGFTFSNAWMSWVRQAPGKGLEWVGRIKSKTDGGTTDYATPVKGRFTISRADSKNTLFLQMSSLKTEDTAVYFCTTGGTNWGQGTLVTVSS
VL: SYELTQPPSVSVSPGQTARITCSADALPKQYAYWYQQKPGQAPVVVIYKDSERPSGIPERFSGSSSGTTVTLTISGVQAEDEADYYCQSLDSSGTYWVFGGGTKLTVL
B17: anti-EPOR antibody clonotype110 (antibody, V domains shown)
VH: QVQLQQWGAGLLKPSETLSLTCAVYGGSFSGYYWSWIRQPPGKGLEWIGEINHSGSTNYNPSLKSRVTISVDTSKNQFSLKLSSVTAADTAVYYCASYGDFFDYWGQGTLVTVSS
VL: LPVLTQPPSASALLGASIKLTCTLSSEHSTYTIEWYQQRPGRSPQYIMKVKSDGSHSKGDGIPDRFMGSSSGADRYLTFSNLQSDDEAEYHCGESHTIDGQVGVVFGGGTKLTVL
B18: anti-EPOR antibody clonotype111 (antibody, V domains shown)
VH: EVQLVESGGGLVKPGGSLRLSCAASGFTFSSYSMNWVRQAPGKGLEWVSSISSSSSYIYYADSVKGRFTISRDNAKNSLYLQMNSLRAEDTAVYYCARETELTVMDVWGKGTTVTVSS
VL: LPVLTQPPSASALLGASIKLTCTLSSEHSTYTIEWYQQRPGRSPQYIMKVKSDGSHSKGDGIPDRFMGSSSGADRYLTFSNLQSDDEAEYHCGESHTIDGQVGWVFGGGTKLTVL
B19: anti-EPOR antibody clonotype397 (antibody, V domains shown)
VH: QVQLQESGPGLVKPSQTLSLTCTVSGGSISSGGYYWSWIRQHPGKGLEWIGYIYYIGITYYNPSLKSRVTISVDTSKNQFSLKLSSVTAADTAVYYCARAFDYWGQGTLVTVSS
VL: SYVLTQPPSVSVPPGKTARITCGGNNVGSKSVHWYQQKPGQAPVLVIYYDTDRPSGIPERFSGSNSGNTATLSISRVEAGDEADYYCQVWDSRSDHVVFGGGTKLTVL
B20: anti-EPOR antibody clonotype95 (antibody, V domains shown)
VH: EVQLVESGGGLVQPGGSLRLSCAASGFTFSSYSMNWVRQAPGKGLEWVSYISSSSSTIYYADSVKGRFTISRDNAKNSLYLQMNSLRDEDTAVYYCARDRYNFDYWGQGTLVTVSS
VL: QSALTQPRSVSGSPGQSVTISCTGTSSDVGGYNYVSWYQQHPGKAPKLMIYDVSKRPSGVPDRFSGSKSGNTASLTISGLQAEDEADYYCCSYAGSSWVFGGGTKLTVL
B21: anti-EPOR antibody clonotype400 (antibody, V domains shown)
VH: QVQLVQSGAEVKKPGASVKVSCKASGYTFTSYDINWVRQATGQGLEWMGWMNPNSGNTGYAQKFQGRVTMTRNTSISTAYMELSSLRSEDTAVYYCARVAFDIWGQGTMVTVSS
VL: QSALTQPASVSGSPGQSITISCTGTSSDVGGYNYVSWYQQHPGKAPKLMIYEVSNRPSGVSNRFSGSKSGNTASLTISGLQAEDEADYYCSSYTSSSTVFGGGTKLTVL

Protein sequences, listed by entry. Tags and fused reporters are not part of them. Lines headed by an entry give the natural chain unless they say otherwise; changes in a name come on top. Residues count along the entry.
UniProt P19235, residues 25-250: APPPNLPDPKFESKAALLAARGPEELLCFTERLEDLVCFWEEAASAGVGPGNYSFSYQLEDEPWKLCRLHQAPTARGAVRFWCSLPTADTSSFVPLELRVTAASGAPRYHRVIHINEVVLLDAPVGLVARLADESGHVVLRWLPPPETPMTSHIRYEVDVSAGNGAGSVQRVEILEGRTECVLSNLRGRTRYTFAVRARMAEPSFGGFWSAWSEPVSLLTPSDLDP

These are yes or no findings as the source states them, for the method shown. Some entries that bind do so weakly or less than the wild type.

The experiment concerns the target recombinant hEPOR-Fc (SinoBiological, Cat #10707-H02H) (human) (UniProt P19235). Description: B cells sorted by flow cytometry on labeled hEPOR-Fc, single cell sequencing.
Turning to B1, the binding result is listed as “binds”.

Consider B2, for which the binding result is on record as “binds”.

B3: the binding entry is given as “binds”.

For the molecule B4, the binding result was “binds”.

As to B5, the binding entry was “binds”.

As to B6, the binding entry is on record as “binds”.

Turning to B7, the binding result is “binds”.

On to B8, for which the binding result is recorded as “binds”.

On to B9, for which the binding result is reported as “binds”.

Turning to B10, the binding entry was “binds”.

With B11, the binding result is “binds”.

On to B12, for which the binding entry was “binds”.

B13: the binding entry is “binds”.

Turning to B14, the binding result is given as “binds”.

In the case of B15, the binding entry is recorded as “binds”.

B16: the binding entry is reported as “binds”.

Turning to B17, the binding result was “binds”.

For B18, the binding entry is “binds”.

With B19, the binding entry was “binds”.

In the case of B20, the binding result is reported as “binds”.

B21: the binding result was “binds”.
